{"source": "PubChem BioAssay AID595", "about": "(National Center for Advancing Translational Sciences (NCATS), 2007)", "note": "Among all 71,000 compounds or so, about 310 (0.44%) were called active. Inconclusive means that the source gave no clear call. Such entries were picked first, then a sample of the others. The call rests on the fitted dose curve; in most records, active means well fitted curve in either direction with a large enough effect; inconclusive means small, poorly fitted or top-dose-only effect, or another doubt; inactive means flat fitted curve, though single readings scatter. Where the call is inconclusive, the potency comes from a doubtful curve fit. On the % scale 0 is the no-effect control and ±100 the full control effect; potency means the concentration at half of the fitted maximal effect.", "data": [{"system": "Hsp90 C-terminal peptide / TPR2A (Hop) interaction, human", "test": "qHTS Assay for Disrupters of an Hsp90 Co-Chaperone Interaction", "conditions": "AlphaScreen TPR2A-His6 binding biotin-Hsp90 C-terminal peptide; activity change, negative = inhibition: at 57 µM (top of the series) unless noted", "values": [{"smiles": "CCOC(=O)CCCCC(=O)c1[nH]c(=O)[nH]c1CSc1nc2ccccc2[nH]1", "Potency": "active: 2.51 µM"}, {"smiles": "CC(C)(C)N1C(=O)Cc2c1nc(N)c1c(N)nc(N3CCCCC3CO)c(C#N)c21", "note": "(configuration not stated)", "Potency": "inconclusive: 31.6 µM [inhibitor, single point]"}, {"smiles": "COc1ccc(-c2c3c(=O)n(C)c(=O)n(C)c3cn2C2CCCCC2)cc1", "activity change, negative = inhibition": "inconclusive: 2.84%"}, {"smiles": "COc1ccc(C2CC(=O)N3CN(c4ccccc4F)CSC3=C2C#N)cc1OC", "note": "(configuration not stated)", "activity change, negative = inhibition": "inconclusive: 28.8%"}, {"smiles": "COc1ccccc1NS(=O)(=O)c1ccc(C)c(C(N)=O)c1", "activity change, negative = inhibition": "inconclusive: 47.7%"}, {"smiles": "CCCCC(CC)COC(=O)CCCCC(=O)OCC(CC)CCCC", "note": "(configuration not stated)", "Potency": "inconclusive: 20 µM [activator, partial curve]"}, {"smiles": "C=CCNC(=O)CCCCC(=O)NCC=C", "activity change, negative = inhibition": "inconclusive: 52%"}, {"smiles": "COc1ccccc1N1C(=O)CC(N2CCc3ccccc32)C1=O", "note": "(configuration not stated)", "activity change, negative = inhibition": "inconclusive: 52.4%"}, {"smiles": "CCCOc1nc2c(c(=O)n(C)c(=O)n2C)n1CCC", "activity change, negative = inhibition": "inconclusive: 43.3%"}, {"smiles": "Cc1cc2cc(C(c3nnnn3CC3CCCO3)N3CCCc4ccccc43)c(=O)[nH]c2cc1C", "note": "(configuration not stated)", "Potency": "inconclusive: 39.8 µM [inhibitor, single point]"}, {"smiles": "CCOC(=O)CNc1nc(C#N)nc(N2CCOCC2)n1", "Potency": "inconclusive: 20 µM [inhibitor, partial curve]"}, {"smiles": "COCCn1c(=O)c(CCc2ccccc2)nc2cnc(Oc3cccc(Cl)c3)nc21", "Potency": "inconclusive: 25.1 µM [activator, single point]"}, {"smiles": "CCOc1ccc(C(=O)OCC(=O)Nc2nc(OC)cc(OC)n2)cc1OCC", "activity change, negative = inhibition": "inconclusive: 50.6%"}, {"smiles": "CCOC(=O)c1c(-c2ccccc2)csc1NC(=O)c1nn(CC)cc1Br", "Potency": "inconclusive: 25.1 µM [activator, single point]"}, {"smiles": "CC(C)C[C@@H](CC(=O)N[C@@H](CCC(=O)O)CC(=O)O)NC(=O)[C@@H]1CNCC[C@H]1NC(=O)C[C@@H](NC(=O)C[C@H](Cc1ccccc1)NC(=O)[C@@H]1CNCC[C@H]1N)C(C)C", "Potency": "inconclusive: 39.8 µM [inhibitor, partial curve]"}, {"smiles": "Cc1nn(-c2ccccc2)c2sc(-c3n[nH]c(=S)o3)cc12", "activity change, negative = inhibition": "inconclusive: 41.5%"}, {"smiles": "O=C(COc1ccc(Cl)cc1)Nc1ccc2oc(-c3ccncc3)nc2c1", "activity change, negative = inhibition": "inconclusive: 48.5%"}, {"smiles": "C/C=C/c1ccc(OCCCCN2C(=O)NC(C)(C)C2=O)c(OC)c1", "activity change, negative = inhibition": "inactive: -8.91%"}, {"smiles": "COc1ccc(C(=O)NCCc2nnc(SCc3nc4ccccc4c(=O)[nH]3)n2C)cc1", "activity change, negative = inhibition": "inactive: -0.254%"}, {"smiles": "O=C(COc1ccccc1O)Nc1ccccc1Cl", "activity change, negative = inhibition": "inconclusive: 50.2%"}, {"smiles": "CNc1ccnc(-c2ccccc2CN(C)C)n1", "Potency": "inconclusive: 25.1 µM [inhibitor, single point]"}, {"smiles": "Cc1ccc(OCCN2C(=O)c3ccccc3C2=O)c(C)c1", "Potency": "inconclusive: 20 µM [activator, single point]"}, {"smiles": "Cn1c(CCN2CCN(c3ccc(F)cc3)CC2)nc2cc(NC(=O)c3ccco3)ccc21", "activity change, negative = inhibition": "inconclusive: 22.1%"}, {"smiles": "COc1cccc(NC(=O)CNC(C)CCC(C)C)c1", "note": "(configuration not stated)", "activity change, negative = inhibition": "inactive: -0.82%"}, {"smiles": "O=C(COc1ccccc1Cl)Nc1ccc(Cl)cn1", "activity change, negative = inhibition": "inconclusive: 63.1%"}, {"smiles": "COc1ccccc1OCCCn1cc(C#N)c2ccccc21", "activity change, negative = inhibition": "inconclusive: 183%"}, {"smiles": "O=C(c1ccc(N2CCOCC2)nc1)N1CCCCC1", "activity change, negative = inhibition": "inconclusive: 44%"}, {"smiles": "Cc1ccc(S(=O)(=O)Nc2cccc3ncccc23)s1", "Potency": "inconclusive: 31.6 µM [inhibitor, single point]"}, {"smiles": "Cn1cccc1-c1nc2ccc(NC(=O)c3cccs3)cc2[nH]1", "Potency": "inconclusive: 25.1 µM [inhibitor, single point]"}, {"smiles": "O=C1C2CCCN2C(c2ccc(F)cc2)N1c1ccc(Cl)cc1", "note": "(configuration not stated)", "activity change, negative = inhibition": "inconclusive: 45.9%"}, {"smiles": "CCCCCCCCCCCCCCCCCC(=O)O[C@H](CC(=O)O)C[N+](C)(C)C", "activity change, negative = inhibition": "inactive: -11.4%"}, {"smiles": "O=S(=O)(c1ccc(NC2CCCc3ccccc32)nc1)N1CCOCC1", "note": "(configuration not stated)", "activity change, negative = inhibition": "inactive: -1.93%"}, {"smiles": "Cc1ccc(C(=O)Nc2ccc(S(=O)(=O)O)c3cc(S(=O)(=O)O)cc(S(=O)(=O)O)c23)cc1NC(=O)c1cccc(NC(=O)Nc2cccc(C(=O)Nc3cc(C(=O)Nc4ccc(S(=O)(=O)O)c5cc(S(=O)(=O)O)cc(S(=O)(=O)O)c45)ccc3C)c2)c1", "Potency": "inconclusive: 39.8 µM [inhibitor, single point]"}, {"smiles": "CN(C)c1ccc(Cc2ccc(N(C)C)cc2)cc1", "Potency": "inconclusive: 31.6 µM [inhibitor, partial curve]"}, {"smiles": "O=C1C=CC(=O)c2c1ccc1c2ccc2ccccc21", "activity change, negative = inhibition": "inactive: -26.6% [at 26 µM]"}, {"smiles": "Cc1cccc(CNc2ccnc(-c3cccnc3)n2)c1", "activity change, negative = inhibition": "inconclusive: 89.9%"}, {"smiles": "Nc1c(S(=O)(=O)c2cccc(Cl)c2)c2nc3ccccc3nc2n1CCN1CCOCC1", "activity change, negative = inhibition": "inactive: -4.15%"}]}]}
